This note sets out measurements from the supplement of paper PMC10849652.

Chains of the proteins cited; added tags and fusions are not shown. Lines headed by an entry give the natural chain unless they say otherwise; changes in a name come on top.
UniProt O60925, whole entry, looked up: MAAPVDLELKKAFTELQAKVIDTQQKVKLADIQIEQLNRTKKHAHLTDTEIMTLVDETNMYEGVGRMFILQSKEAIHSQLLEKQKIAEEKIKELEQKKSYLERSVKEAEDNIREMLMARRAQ
UniProt P15735: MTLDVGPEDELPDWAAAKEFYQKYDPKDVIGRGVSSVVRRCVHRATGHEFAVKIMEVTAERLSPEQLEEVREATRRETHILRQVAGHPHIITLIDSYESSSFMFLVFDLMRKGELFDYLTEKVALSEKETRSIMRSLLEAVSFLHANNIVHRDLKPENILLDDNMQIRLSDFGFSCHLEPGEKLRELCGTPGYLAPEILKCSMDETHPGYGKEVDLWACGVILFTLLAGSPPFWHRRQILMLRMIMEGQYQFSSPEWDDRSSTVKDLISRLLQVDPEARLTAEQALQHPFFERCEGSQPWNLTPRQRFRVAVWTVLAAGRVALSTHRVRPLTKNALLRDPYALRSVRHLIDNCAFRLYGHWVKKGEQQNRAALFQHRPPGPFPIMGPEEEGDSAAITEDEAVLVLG
UniProt O95394: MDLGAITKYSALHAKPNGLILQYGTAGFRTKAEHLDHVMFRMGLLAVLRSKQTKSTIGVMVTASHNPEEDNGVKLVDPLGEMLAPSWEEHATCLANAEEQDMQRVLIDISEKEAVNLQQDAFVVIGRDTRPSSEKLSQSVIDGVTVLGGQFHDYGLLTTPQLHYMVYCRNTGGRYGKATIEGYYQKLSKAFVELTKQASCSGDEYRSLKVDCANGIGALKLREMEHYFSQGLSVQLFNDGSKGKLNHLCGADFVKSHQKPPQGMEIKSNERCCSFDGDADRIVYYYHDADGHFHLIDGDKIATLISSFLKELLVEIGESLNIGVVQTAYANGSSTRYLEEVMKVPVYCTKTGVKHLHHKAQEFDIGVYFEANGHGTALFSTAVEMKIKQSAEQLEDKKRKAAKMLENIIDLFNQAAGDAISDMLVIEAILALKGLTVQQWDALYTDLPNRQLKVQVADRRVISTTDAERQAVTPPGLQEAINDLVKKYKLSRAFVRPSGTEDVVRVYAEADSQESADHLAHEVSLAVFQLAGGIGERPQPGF
UniProt Q32M88: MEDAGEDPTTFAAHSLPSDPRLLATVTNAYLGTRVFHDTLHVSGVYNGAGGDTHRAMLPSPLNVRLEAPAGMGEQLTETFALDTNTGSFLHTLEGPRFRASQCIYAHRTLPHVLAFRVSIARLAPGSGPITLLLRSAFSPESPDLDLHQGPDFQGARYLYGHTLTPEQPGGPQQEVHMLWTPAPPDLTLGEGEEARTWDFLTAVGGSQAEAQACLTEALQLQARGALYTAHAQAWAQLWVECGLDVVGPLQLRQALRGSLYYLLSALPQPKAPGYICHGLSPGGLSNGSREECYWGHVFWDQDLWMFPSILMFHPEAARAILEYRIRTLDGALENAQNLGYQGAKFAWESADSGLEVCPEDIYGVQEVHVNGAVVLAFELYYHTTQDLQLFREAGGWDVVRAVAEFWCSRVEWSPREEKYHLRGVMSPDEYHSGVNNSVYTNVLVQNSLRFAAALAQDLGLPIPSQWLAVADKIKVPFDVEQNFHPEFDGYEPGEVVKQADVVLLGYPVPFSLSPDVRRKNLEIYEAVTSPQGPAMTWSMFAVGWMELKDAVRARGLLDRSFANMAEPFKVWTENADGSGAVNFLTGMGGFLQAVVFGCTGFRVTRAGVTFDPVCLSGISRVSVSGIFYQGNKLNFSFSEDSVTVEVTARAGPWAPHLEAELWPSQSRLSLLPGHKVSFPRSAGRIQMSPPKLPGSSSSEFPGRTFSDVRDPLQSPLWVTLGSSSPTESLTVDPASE
UniProt P42338: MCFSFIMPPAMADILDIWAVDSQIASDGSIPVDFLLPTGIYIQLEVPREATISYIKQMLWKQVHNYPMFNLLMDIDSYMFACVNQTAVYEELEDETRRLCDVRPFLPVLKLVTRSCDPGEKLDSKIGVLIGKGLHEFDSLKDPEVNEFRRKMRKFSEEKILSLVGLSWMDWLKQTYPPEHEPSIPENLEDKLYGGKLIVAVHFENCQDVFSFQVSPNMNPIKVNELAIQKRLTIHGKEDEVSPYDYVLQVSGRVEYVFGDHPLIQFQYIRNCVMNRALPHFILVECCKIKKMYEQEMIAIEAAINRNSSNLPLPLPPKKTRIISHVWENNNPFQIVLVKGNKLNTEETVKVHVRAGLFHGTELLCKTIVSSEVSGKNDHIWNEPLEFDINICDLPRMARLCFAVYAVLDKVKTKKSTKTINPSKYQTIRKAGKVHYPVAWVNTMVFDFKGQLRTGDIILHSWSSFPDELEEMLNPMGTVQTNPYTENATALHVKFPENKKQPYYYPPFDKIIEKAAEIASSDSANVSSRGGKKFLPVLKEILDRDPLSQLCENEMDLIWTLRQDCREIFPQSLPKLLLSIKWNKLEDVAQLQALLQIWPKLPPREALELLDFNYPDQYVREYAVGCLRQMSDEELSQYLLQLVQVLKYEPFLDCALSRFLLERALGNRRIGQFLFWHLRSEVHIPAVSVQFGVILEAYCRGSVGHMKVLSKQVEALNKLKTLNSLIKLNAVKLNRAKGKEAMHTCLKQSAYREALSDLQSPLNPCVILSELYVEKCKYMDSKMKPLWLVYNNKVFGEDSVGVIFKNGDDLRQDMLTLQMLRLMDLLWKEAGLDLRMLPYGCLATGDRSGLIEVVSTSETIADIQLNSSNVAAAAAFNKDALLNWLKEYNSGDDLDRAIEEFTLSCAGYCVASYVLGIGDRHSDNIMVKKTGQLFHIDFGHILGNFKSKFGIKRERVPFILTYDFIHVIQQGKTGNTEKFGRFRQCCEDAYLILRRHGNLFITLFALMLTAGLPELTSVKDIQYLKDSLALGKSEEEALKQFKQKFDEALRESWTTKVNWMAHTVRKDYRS
UniProt Q5JRX3: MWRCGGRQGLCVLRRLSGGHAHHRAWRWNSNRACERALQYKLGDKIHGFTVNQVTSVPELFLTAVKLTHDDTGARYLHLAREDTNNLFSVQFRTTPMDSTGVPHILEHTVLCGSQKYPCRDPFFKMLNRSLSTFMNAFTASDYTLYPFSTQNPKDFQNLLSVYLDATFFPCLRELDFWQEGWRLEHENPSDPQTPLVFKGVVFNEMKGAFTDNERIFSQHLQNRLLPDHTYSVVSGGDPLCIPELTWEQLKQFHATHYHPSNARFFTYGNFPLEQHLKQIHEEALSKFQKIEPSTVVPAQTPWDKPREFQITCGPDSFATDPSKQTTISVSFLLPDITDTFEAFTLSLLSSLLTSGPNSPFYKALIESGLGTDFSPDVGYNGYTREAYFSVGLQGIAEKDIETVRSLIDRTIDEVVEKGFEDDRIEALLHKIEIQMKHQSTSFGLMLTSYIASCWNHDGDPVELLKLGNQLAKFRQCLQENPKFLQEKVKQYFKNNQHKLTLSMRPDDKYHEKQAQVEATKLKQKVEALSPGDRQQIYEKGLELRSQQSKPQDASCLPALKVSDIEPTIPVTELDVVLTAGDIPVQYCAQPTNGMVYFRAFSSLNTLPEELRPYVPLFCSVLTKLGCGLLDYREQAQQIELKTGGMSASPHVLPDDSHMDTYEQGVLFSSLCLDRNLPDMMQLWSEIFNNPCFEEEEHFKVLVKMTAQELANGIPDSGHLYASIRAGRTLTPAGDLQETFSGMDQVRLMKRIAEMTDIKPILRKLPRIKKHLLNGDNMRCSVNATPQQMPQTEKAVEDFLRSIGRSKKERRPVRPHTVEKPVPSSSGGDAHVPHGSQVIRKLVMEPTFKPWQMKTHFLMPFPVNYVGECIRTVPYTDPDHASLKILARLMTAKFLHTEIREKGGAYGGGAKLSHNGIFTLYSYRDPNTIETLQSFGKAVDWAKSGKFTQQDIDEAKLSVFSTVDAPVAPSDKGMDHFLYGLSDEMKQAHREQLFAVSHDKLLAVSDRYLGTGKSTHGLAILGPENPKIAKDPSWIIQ
UniProt Q16512: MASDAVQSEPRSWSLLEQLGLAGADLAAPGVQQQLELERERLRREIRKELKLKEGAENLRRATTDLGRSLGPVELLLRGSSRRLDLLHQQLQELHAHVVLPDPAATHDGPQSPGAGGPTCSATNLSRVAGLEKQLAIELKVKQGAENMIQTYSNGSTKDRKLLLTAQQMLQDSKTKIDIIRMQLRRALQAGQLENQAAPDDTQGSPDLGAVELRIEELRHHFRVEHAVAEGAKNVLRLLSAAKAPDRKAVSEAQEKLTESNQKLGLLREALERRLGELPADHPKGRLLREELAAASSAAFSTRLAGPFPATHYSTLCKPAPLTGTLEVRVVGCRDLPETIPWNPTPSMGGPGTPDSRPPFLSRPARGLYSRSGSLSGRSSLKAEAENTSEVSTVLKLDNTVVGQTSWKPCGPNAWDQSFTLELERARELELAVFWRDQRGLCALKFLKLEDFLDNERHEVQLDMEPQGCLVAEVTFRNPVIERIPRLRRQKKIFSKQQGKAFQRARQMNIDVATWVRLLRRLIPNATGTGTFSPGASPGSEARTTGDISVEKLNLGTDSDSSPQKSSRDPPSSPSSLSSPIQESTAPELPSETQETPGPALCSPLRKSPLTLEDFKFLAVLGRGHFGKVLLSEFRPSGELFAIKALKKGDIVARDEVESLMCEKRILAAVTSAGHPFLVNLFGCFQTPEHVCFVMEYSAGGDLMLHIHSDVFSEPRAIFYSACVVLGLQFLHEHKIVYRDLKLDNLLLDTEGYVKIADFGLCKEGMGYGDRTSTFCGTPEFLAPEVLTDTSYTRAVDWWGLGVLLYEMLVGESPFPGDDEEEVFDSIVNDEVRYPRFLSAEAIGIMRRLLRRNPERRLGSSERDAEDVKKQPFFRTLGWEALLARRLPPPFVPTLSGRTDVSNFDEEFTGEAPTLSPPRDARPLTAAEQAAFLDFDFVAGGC
UniProt Q01970, whole entry, looked up: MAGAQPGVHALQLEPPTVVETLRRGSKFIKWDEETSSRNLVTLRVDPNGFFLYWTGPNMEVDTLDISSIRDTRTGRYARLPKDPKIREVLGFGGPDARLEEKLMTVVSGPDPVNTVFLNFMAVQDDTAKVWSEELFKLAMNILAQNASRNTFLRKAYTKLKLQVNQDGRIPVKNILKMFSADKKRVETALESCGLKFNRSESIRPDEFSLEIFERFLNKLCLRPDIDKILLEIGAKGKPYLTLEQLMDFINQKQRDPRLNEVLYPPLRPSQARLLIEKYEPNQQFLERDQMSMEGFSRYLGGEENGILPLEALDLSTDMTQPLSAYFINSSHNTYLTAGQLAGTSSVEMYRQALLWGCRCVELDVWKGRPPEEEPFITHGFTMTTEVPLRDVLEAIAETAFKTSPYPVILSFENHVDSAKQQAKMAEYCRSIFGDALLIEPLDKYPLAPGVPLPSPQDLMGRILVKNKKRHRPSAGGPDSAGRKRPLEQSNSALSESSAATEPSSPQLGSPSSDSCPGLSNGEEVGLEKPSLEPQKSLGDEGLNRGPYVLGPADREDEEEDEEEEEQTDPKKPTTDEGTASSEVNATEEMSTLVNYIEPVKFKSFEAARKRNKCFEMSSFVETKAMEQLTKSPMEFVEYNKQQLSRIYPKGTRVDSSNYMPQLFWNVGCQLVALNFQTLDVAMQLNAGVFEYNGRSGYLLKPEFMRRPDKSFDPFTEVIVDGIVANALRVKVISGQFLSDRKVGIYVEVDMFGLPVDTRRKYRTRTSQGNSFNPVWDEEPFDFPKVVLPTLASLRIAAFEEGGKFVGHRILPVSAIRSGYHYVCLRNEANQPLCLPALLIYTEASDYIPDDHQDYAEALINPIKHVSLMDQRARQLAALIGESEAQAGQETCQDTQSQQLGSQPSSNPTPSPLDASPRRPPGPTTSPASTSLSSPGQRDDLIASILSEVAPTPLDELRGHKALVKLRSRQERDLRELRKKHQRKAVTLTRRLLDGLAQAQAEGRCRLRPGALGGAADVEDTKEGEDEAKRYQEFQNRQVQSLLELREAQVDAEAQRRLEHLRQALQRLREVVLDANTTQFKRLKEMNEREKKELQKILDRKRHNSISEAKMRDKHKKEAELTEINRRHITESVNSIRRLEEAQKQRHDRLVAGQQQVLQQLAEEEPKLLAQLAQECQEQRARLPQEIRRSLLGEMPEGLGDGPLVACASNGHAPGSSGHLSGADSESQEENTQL
UniProt Q8N4L2: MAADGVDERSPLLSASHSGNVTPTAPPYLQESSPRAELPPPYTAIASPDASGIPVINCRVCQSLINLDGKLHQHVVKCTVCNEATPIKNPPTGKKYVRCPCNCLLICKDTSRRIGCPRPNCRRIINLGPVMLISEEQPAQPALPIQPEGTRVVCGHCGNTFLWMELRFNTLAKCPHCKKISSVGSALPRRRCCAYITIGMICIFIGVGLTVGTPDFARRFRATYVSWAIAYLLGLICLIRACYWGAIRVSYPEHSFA

The other results are listed elsewhere or left out.

Compound in this experiment: COC(=O)N[C@@H](C)CNc1nccc(-c2cn(C(C)C)nc2-c2cc(Cl)cc(NS(C)(=O)=O)c2F)n1 [encorafenib]
The experiment in a line: log2 fold change, soluble protein after heating vs DMSO (PISA); higher = thermal stabilisation; K562 cells, 10 uM, 30 min; active = over 0.2 and 3.5 SD of the protein, either way, in both replicates (recomputed). The essentials: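 K562 cells at 2×10^6 cells/mL were treated for 30 min with 10 μM compound, and aliquots were heated for 3 min over 48°C-58°C before pooling. Extraction used PBS with 0.5% NP-40 at 4°C, and soluble protein was the supernatant after 21,000xg for 90 min, measured by TMTpro 16plex LC-MS/MS with channel sums equalised. Thermal stability values, relative to control samples and from duplicates, are log2 fold changes.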
For the target PFDN1 (UniProt O60925), the log2 fold change was inactive: 0.008.

As to PHKG2 (UniProt P15735), the log2 fold change was inactive: 0.181.

Regarding PIP4P1 isoform 2 (UniProt Q86T03), the log2 fold change is inactive: -0.027.

As for PGM3 isoform 4 (UniProt O95394), the log2 fold change is inactive: 0.024.

Take PGGHG (UniProt Q32M88): the log2 fold change was inactive: -0.086.

For the target PIK3CB (UniProt P42338), the log2 fold change is inactive: -0.015.

Turning to PITRM1 isoform 2 (UniProt Q5JRX3), the log2 fold change was inactive: -0.032.

PKN1 isoform 2 (UniProt Q16512): the log2 fold change was inactive: 0.024.

Take PIGG (UniProt Q5H8A4): the log2 fold change is inactive: 0.07.

In the case of PFAS (UniProt O15067), the log2 fold change was inactive: 0.011.

For the target PHAX (UniProt Q9H814), the log2 fold change was inactive: -0.034.

Regarding PIGW (UniProt Q7Z7B1), the log2 fold change is inactive: -0.075.

Take PLCB3 (UniProt Q01970): the log2 fold change is inactive: 0.004.

Take PIP4P2 (UniProt Q8N4L2): the log2 fold change is inactive: -0.04.
